In paper PMC8494857:
These are yes or no findings as the source states them, for the method shown. Binding seen in cells or lysates may run through a third protein. Some results given as binding are weak or reduced against the parent protein; the word gives no strength.

Chains of the proteins cited; added tags and fusions are not shown.
UniProt Q15121: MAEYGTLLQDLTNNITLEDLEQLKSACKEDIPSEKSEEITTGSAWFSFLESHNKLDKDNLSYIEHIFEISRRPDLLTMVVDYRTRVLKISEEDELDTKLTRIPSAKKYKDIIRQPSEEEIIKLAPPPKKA
UniProt Q00610: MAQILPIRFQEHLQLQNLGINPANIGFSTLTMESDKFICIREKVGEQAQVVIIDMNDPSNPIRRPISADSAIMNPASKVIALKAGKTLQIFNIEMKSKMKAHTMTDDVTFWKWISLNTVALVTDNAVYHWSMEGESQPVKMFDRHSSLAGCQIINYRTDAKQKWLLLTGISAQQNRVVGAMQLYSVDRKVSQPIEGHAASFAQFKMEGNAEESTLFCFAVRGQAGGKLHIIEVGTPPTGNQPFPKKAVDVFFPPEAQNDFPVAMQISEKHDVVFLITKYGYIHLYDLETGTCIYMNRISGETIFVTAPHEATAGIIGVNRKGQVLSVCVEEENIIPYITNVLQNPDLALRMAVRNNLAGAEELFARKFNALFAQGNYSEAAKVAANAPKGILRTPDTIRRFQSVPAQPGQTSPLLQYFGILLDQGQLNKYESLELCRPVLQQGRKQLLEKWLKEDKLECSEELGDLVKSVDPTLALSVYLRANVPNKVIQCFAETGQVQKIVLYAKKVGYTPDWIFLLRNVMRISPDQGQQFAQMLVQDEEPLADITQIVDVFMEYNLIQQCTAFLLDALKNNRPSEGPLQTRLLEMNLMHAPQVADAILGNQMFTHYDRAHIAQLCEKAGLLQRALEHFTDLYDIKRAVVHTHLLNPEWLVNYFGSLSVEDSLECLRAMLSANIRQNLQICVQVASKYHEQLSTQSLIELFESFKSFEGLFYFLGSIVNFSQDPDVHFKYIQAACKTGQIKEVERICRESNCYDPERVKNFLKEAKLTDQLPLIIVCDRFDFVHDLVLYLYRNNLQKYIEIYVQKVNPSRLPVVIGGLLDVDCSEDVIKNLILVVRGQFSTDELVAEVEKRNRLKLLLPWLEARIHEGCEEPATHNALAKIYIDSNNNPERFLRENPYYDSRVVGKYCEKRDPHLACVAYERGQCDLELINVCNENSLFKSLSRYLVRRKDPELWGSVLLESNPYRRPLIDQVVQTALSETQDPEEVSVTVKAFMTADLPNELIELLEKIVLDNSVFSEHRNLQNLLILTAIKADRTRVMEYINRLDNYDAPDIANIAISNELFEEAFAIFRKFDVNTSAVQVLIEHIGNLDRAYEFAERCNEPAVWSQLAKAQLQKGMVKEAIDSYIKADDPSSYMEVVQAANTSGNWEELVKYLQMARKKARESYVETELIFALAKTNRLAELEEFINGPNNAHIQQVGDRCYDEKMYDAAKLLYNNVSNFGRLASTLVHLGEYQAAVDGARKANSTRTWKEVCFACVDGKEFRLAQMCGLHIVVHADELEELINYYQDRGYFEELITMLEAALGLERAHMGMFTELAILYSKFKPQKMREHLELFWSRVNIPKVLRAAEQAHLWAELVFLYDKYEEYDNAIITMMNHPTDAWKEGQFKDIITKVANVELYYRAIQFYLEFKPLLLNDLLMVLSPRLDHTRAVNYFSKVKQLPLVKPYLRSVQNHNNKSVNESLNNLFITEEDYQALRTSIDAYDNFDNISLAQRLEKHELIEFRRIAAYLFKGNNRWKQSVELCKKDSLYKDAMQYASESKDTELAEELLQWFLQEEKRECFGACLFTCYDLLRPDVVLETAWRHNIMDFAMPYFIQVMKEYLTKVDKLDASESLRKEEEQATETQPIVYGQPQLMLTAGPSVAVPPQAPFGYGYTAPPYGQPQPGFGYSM
UniProt O95782: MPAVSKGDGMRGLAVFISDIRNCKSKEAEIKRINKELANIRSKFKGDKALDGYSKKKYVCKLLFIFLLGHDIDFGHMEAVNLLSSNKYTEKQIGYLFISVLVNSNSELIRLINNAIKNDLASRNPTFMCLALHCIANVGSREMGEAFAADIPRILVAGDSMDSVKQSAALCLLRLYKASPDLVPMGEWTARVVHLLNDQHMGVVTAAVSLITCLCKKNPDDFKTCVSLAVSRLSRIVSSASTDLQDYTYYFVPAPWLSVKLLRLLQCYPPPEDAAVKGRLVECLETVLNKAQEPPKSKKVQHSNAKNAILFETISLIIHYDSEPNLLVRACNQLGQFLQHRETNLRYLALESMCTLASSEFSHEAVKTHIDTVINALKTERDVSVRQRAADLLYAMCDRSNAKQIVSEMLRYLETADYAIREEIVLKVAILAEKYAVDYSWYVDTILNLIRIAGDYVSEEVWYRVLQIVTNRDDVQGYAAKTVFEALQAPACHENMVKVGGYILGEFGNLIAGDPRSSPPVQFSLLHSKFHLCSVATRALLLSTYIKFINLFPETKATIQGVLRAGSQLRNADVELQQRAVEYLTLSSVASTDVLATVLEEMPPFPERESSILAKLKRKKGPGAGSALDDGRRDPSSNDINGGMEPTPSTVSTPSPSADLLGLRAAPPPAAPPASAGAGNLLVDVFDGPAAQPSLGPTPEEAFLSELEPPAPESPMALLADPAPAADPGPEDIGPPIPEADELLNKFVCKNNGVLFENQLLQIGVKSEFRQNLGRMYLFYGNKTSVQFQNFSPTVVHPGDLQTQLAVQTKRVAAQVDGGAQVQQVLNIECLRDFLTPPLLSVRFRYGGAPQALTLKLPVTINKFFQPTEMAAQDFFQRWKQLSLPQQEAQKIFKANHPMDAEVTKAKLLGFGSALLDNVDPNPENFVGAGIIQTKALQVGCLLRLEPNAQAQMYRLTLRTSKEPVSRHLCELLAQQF

What was measured:
[1] = biological target: PEA-15 (Phosphoprotein Enriched in Astrocytes of 15 kDa) (human (endogenous in U87MG)) (UniProt Q15121); assay: co-IP; U87MG lysate, immunoprecipitation of PEA-15 with anti-PEA-15 antibodies; clathrin heavy chain detected by Western blot
[2] = biological target: PEA-15 (Phosphoprotein Enriched in Astrocytes of 15 kDa) (human (endogenous in U87MG)) (UniProt Q15121); assay: proximity ligation; Duolink in situ PLA of endogenous proteins in fixed, permeabilized U251MG cells, serum starved 18 h then 100 ng/ml EGF for 10 min; antibody to PEA-15 and either clathrin or AP-2; PEA-15 antibodies alone as negative control

Substance: Clathrin heavy chain 1 (from UniProt Q00610 1-1675)
- binding [1]: binds
- binding [2]: binds

Substance: AP-2 complex subunit alpha-1 (from UniProt O95782 1-977)
- binding [2]: binds
